One compound from the supplement of paper PMC3493320 can be followed below.

A value given as a limit tells only on which side of the number the result lay.

The subject of this assay is NCI-H295R. The experiment in a line: IC50 (antiproliferative, ATP content). As to conditions: 48 h. In short, it runs like this:
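Serum-free ITS-supplemented DMEM was used to seed 1500 adrenocortical carcinoma cells per well in 1536-well plates, which were cultured overnight. Eight final concentrations of each library compound, from 0.6 nM to 46 µM, were added by pin transfer, followed by 48 h at 37 °C in 5% CO2 and a CellTiter-Glo ATP read after 20 min at room temperature. Luminescence was set against vehicle and positive-control wells, and the IC50 was obtained by logistic curve fitting. Any compound with no concentration response was entered as above the top dose.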

For `Br.CN1[C@@H]2CC[C@H]1C[C@@H](OC(=O)C(O)c1ccccc1)C2` (stereo partly specified), the 50% inhibitory concentration (IC50) was more than 46 µM.

As a reminder, the IC50 is the concentration needed to halve the response being measured. The low end stands for greater potency, the high end for weaker potency.
